Literature values as cited in patent US20250345315A1, “Dispenseable formulation for active pharmaceutical ingredients” (CurifyLabs Oy, priority 2024, published 2025).
At least one compound was matched to its structure with a doubt left.

Details: permeability/solubility class per ICH M9 guideline

C[C@H]1c2cccc(O)c2C(=O)C2=C(O)[C@]3(O)C(=O)C(C(N)=O)=C(O)[C@@H](N(C)C)[C@@H]3[C@@H](O)[C@@H]21 [Doxycycline]
Class: I
